The numbers were not newly measured in patent publication US20040131981A1, “Color developing solution of silver halide color photographic photosensitive material and manufacturing method of color developing solution” (priority 2002, published 2004), which cites them from elsewhere.

The conditions of this series: Compound I, pH buffering agent of alkali part solution.

The structures appear in SMILES notation.

As for `NCCCC(N)C(=O)O` (stereo not shown) [Compound I-18], the Pka is 10.73.
